Data published in US10800794B2, “Heterocycle-substituted bicyclic azole pesticides” (priority 2015, dated 2020).
Some entries share one result that the patent states for a list of compounds.

Experiments:
Assay type in all cases: in vivo
[1] = system: green peach aphid (Myzus persicae (Sulzer)); assay: Test A: control of green peach aphid through contact and/or systemic means, sprayed radish plant; settings: assessed after 6 days at 19-21° C.
[2] = system: cotton melon aphid (Aphis gossypii (Glover)); assay: Test B: control of cotton melon aphid through contact and/or systemic means, sprayed cotton plant; settings: assessed after 6 days at 19° C.
[3] = system: sweetpotato whitefly (Bemisia tabaci (Gennadius)); assay: Test D: control of sweetpotato whitefly through contact and/or systemic means, sprayed cotton plant infested with eggs; settings: sprayed at 250 ppm, assessed after 13 days at 28° C.
Description: Test compounds were formulated using a solution containing 10% acetone, 90% water and 300 ppm X-77® Spreader Lo-Foam Formula non-ionic surfactant containing alkylarylpolyoxyethylene, free fatty acids, glycols and isopropanol (Loveland Industries, Inc. Greeley, Colo., USA). The formulated compounds were applied in 1 mL of liquid through a SUJ2 atomizer nozzle with ⅛ JJ custom body (Spraying Systems Co. Wheaton, Ill., USA) positioned 1.27 cm (0.5 inches) above the top of each test unit. Test compounds were sprayed at the rates indicated, and each test was replicated three times.
For evaluating control of the sweetpotato whitefly (Bemisia tabaci (Gennadius)) through contact and/or systemic means, the test unit consisted of a small open container with a 12-14-day-old cotton plant inside. Prior to the spray application, both cotyledons were removed from the plant, leaving one true leaf for the assay. Adult whiteflies were allowed to lay eggs on the plant and then were removed from the test unit. Cotton plants infested with at least 15 eggs were submitted to the test for spraying.
Test compounds were formulated and sprayed at 250 and/or 50 ppm. After spraying, the test units were allowed to dry for 1 hour. […] Each test unit was then visually assessed for insect mortality.

[4] = system: Western Flower Thrips (Frankliniella occidentalis (Pergande)); assay: Test C: control of Western Flower Thrips through contact and/or systemic means, sprayed Soleil bean plant; settings: adult thrips, held 6 days at 25° C.

Measured: mortality

CCNC(=O)C(C)(C)NC(=O)c1csc2nc(-c3cncc(F)c3)cn12 [Compound 15]
at least 80%: [1]; sprayed at 50 ppm | [1]; sprayed at 250 ppm | [2]; sprayed at 250 ppm

COCC(C)NC(=O)c1csc2nc(-c3cncnc3)cn12 (centres unmarked) [Compound 27]
at least 80%: [2]; sprayed at 250 ppm

CNC(=O)C(C)(C)NC(=O)c1csc2nc(-c3cncc(F)c3)cn12 [Compound 13]
at least 80%: [1]; sprayed at 50 ppm | [1]; sprayed at 250 ppm

CC(C)(C#N)NC(=O)c1csc2nc(-c3cccnc3)cn12 [Compound 6]
at least 80%: [1]; sprayed at 50 ppm | [2]; sprayed at 50 ppm

COC(=O)C(C)(C)NC(=O)c1csc2nc(-c3cncc(F)c3)cn12 [Compound 8]
at least 80%: [1]; sprayed at 50 ppm | [1]; sprayed at 250 ppm | [3] | [4]; sprayed at 50 ppm | [4]; sprayed at 250 ppm | [2]; sprayed at 50 ppm | [2]; sprayed at 250 ppm

CN(C)C(=O)C(C)(C)NC(=O)c1csc2nc(-c3cncc(F)c3)cn12 [Compound 14]
at least 80%: [1]; sprayed at 50 ppm | [1]; sprayed at 250 ppm | [4]; sprayed at 50 ppm | [4]; sprayed at 250 ppm | [2]; sprayed at 50 ppm | [2]; sprayed at 250 ppm

NC(=O)c1csc2nc(-c3cccnc3)cn12 [Compound 5]
at least 80%: [1]; sprayed at 250 ppm

O=C(NCCC(F)(F)F)c1csc2nc(-c3cncnc3)cn12 [Compound 22]
at least 80%: [2]; sprayed at 50 ppm | [2]; sprayed at 250 ppm

COC(=O)C(C)(C)NC(=O)c1csc2nc(-c3cncnc3)cn12 [Compound 30]
at least 80%: [1]; sprayed at 250 ppm | [2]; sprayed at 50 ppm | [2]; sprayed at 250 ppm

CNC(=O)C(NC(=O)c1csc2nc(-c3cncc(F)c3)cn12)C(C)C (centres unmarked) [Compound 18]
at least 80%: [1]; sprayed at 50 ppm | [1]; sprayed at 250 ppm | [2]; sprayed at 250 ppm

COC(=O)NNC(=O)c1cn2cc(-c3cccnc3)nc2s1 [Compound 45]
at least 80%: [2]; sprayed at 50 ppm | [2]; sprayed at 250 ppm

COCC(C)NC(=O)c1cn2cc(-c3cncc(F)c3)nc2s1 (centres unmarked) [Compound 39]
at least 80%: [1]; sprayed at 50 ppm | [1]; sprayed at 250 ppm | [2]; sprayed at 50 ppm | [2]; sprayed at 250 ppm

O=C(NC1CC1)c1cn2cc(-c3cncc(F)c3)nc2s1 [Compound 38]
at least 80%: [1]; sprayed at 50 ppm | [1]; sprayed at 250 ppm | [2]; sprayed at 50 ppm | [2]; sprayed at 250 ppm

O=C(NCC(F)(F)F)c1cn2cc(-c3cncc(F)c3)nc2s1 [Compound 35]
at least 80%: [1]; sprayed at 50 ppm | [1]; sprayed at 250 ppm | [2]; sprayed at 50 ppm | [2]; sprayed at 250 ppm

CN(C)C(=O)C(C)(C)NC(=O)c1csc2nc(-c3cncnc3)cn12 [Compound 32]
at least 80%: [1]; sprayed at 250 ppm | [2]; sprayed at 250 ppm

CC(C)NC(=O)c1csc2nc(-c3cncc(F)c3)cn12 [Compound 16]
at least 80%: [1]; sprayed at 50 ppm | [2]; sprayed at 50 ppm

CC(C)(C#N)NC(=O)c1csc2nc(-c3cncc(F)c3)cn12 [Compound 7]
at least 80%: [1]; sprayed at 50 ppm | [1]; sprayed at 250 ppm | [3] | [2]; sprayed at 50 ppm | [2]; sprayed at 250 ppm

CC(C)C(NC(=O)c1csc2nc(-c3cncc(F)c3)cn12)C(=O)N(C)C (centres unmarked) [Compound 19]
at least 80%: [1]; sprayed at 50 ppm | [1]; sprayed at 250 ppm

COC(=O)C(NC(=O)c1csc2nc(-c3cncc(F)c3)cn12)C(C)C (centres unmarked) [Compound 10]
at least 80%: [1]; sprayed at 250 ppm | [2]; sprayed at 50 ppm | [2]; sprayed at 250 ppm

O=C(NCCC(F)(F)F)c1csc2nc(-c3cncc(F)c3)cn12 [Compound 9]
at least 80%: [1]; sprayed at 50 ppm | [1]; sprayed at 250 ppm | [2]; sprayed at 50 ppm | [2]; sprayed at 250 ppm

CCNC(=O)C(NC(=O)c1csc2nc(-c3cncc(F)c3)cn12)C(C)C (centres unmarked) [Compound 20]
at least 80%: [1]; sprayed at 50 ppm | [1]; sprayed at 250 ppm | [2]; sprayed at 250 ppm
